Data from PubChem BioAssay (EPA / NIEHS).
Several values for one entry are separate records, joined by “and”; a condition that tells them apart may be missing. Equal entries are not always repeated. This list was built around the results that the source calls inconclusive (neither active nor inactive); the mix of calls is not that of the screen. For some of these results: Potencies beside an inconclusive call are fits to weak or partial responses and may not hold up. Activity calls are given as the source filed them. How the source made its calls: active means hit-call score of the fitted dose curve at least 0.9, where 1 is the maximum; inconclusive means response in the unintended direction; inactive means score below 0.9.

Sequences of proteins named here, by UniProt entry; tags and fusion partners are left off. A change or cut given only in a name is not applied to a line headed by its entry.
UniProt P04150: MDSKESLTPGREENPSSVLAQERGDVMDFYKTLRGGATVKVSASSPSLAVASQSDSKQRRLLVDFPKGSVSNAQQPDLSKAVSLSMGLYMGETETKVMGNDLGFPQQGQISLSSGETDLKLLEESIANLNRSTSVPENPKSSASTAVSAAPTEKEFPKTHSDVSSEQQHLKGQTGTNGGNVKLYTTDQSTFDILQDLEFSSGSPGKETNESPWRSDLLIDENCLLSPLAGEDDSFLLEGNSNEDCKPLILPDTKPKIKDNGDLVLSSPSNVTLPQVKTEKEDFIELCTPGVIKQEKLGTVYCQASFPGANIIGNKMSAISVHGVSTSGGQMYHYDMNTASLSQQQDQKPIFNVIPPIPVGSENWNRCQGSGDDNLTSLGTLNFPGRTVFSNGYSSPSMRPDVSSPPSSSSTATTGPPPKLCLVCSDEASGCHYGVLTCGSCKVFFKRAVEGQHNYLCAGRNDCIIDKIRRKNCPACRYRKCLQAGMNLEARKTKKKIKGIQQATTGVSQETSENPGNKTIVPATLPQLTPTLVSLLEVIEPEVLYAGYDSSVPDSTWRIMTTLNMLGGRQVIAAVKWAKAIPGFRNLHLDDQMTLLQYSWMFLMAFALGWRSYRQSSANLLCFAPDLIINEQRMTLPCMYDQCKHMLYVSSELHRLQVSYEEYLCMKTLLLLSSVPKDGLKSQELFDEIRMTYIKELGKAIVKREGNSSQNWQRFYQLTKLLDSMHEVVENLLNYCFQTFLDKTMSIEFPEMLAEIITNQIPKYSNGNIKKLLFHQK
UniProt Q03181: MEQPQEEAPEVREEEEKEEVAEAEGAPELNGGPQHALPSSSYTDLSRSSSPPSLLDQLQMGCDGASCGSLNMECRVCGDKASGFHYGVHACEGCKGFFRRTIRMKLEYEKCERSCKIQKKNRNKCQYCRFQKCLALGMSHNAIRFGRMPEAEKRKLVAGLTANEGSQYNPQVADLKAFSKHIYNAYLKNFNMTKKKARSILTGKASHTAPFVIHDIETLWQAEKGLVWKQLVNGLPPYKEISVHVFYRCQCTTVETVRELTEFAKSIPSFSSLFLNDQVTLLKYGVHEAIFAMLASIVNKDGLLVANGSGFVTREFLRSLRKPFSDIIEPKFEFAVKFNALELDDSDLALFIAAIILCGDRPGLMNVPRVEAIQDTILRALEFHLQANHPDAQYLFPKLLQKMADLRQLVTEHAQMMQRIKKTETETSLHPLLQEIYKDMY
UniProt O75469: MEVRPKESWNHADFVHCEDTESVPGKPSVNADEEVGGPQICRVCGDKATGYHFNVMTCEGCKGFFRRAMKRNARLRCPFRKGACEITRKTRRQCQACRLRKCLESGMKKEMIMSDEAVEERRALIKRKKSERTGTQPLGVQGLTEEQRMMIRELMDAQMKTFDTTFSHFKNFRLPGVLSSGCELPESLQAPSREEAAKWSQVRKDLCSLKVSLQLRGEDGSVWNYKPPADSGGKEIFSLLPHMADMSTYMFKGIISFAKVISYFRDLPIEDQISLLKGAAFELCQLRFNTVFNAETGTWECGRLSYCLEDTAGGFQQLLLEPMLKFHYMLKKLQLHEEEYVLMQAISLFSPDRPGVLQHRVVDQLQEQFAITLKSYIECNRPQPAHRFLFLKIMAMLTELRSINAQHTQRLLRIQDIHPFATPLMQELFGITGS
UniProt P11473: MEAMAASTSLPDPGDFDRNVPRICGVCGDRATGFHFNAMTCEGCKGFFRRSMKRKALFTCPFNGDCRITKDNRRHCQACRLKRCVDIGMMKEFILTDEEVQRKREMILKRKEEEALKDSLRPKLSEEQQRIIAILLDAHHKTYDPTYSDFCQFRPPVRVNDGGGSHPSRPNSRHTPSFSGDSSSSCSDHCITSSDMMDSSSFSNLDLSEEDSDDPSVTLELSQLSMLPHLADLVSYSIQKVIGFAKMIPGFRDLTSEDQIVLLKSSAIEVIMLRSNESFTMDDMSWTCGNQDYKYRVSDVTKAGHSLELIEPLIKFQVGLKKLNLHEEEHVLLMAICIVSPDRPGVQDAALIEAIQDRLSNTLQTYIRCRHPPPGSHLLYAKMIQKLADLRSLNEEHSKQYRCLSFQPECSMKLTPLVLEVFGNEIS
UniProt P37231: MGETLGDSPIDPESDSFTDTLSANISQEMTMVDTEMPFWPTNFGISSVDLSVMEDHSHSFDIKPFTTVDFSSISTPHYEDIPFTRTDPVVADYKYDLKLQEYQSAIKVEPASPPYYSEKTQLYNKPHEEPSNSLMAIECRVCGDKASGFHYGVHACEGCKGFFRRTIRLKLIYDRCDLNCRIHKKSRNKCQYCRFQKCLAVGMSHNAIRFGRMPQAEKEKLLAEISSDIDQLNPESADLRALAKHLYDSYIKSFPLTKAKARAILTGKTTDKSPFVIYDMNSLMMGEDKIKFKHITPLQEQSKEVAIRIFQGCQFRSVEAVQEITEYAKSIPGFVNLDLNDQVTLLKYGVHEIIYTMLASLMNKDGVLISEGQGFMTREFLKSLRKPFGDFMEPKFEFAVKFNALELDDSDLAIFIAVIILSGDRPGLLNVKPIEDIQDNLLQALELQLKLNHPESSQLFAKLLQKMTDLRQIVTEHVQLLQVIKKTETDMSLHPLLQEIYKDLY
UniProt P04637, whole entry, looked up: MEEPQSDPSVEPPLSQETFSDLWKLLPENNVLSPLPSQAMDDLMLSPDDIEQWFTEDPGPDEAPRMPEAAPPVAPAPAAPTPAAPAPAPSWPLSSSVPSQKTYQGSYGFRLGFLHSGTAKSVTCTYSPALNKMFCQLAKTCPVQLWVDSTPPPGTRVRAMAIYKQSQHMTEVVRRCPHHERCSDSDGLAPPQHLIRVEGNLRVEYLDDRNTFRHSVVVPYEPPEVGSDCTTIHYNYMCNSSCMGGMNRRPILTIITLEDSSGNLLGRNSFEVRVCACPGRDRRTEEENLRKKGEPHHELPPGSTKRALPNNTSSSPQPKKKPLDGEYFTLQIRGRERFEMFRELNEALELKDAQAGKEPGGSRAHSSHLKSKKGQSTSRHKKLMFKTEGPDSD
UniProt P19793: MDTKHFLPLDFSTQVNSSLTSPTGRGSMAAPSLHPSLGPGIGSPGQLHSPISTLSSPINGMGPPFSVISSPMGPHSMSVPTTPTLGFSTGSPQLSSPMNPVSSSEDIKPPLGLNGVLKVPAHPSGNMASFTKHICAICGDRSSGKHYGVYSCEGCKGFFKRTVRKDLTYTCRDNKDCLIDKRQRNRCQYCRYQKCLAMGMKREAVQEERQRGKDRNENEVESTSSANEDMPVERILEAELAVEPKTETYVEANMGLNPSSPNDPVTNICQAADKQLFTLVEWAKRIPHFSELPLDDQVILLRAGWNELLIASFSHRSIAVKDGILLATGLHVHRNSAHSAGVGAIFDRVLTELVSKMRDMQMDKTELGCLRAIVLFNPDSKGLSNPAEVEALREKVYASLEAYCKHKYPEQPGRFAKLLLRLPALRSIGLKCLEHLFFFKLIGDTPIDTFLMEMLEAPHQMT

What was measured:
[1] = molecular target: Glucocorticoid receptor (Homo sapiens) (UniProt P04150); assay: ATG_GR_TRANS: Attagene TRANS-FACTORIAL HepG2 Assay for human Glucocorticoid Receptor (GR) (AID 2282978); details: HepG2 Attagene TRANS GR reporter, mRNA transcription;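 further: activators score as hits since higher reporter transcript over DMSO is fitted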
How it was run: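 Exogenous NR-GAL4 fusion activity was assessed through induced GAL4-UAS reporter transcripts in transfected human HepG2 cells, quantified after 24 h by RT-PCR and fluorescent capillary electrophoresis with DMSO as baseline.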

[2] = molecular target: human Peroxisome Proliferator-activated Receptor delta (PPARd), PPARD (gene 5467) (UniProt Q03181); assay: ATG_PPARd_TRANS: Attagene TRANS-FACTORIAL HepG2 Assay for human Peroxisome Proliferator-activated Receptor delta (PPARd) (AID 2283002)
How it was run: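 Measured quantity: GAL4-UAS reporter transcript induction in HepG2 after 24 h chemical dosing, with NR-Gal4 chimeras supplied by transient transfection. Detection by RT-PCR and capillary electrophoresis; upward fit against DMSO.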

[3] = molecular target: Nuclear receptor subfamily 1 group I member 2 (Homo sapiens) (UniProt O75469); assay: ATG_PXR_TRANS: Attagene TRANS-FACTORIAL HepG2 Assay for human Pregnane X Receptor (PXR) (AID 2283008)
How it was run: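 Transient HepG2 transfectants carrying multiplexed reporter transcription units; PXR activity read through a Gal4 chimera. 24 h exposure. RT-PCR/CE fluorescence; upward curve fit referenced to DMSO.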

[4] = molecular target: human Vitamin D Receptor (VDR), VDR (gene 7421) (UniProt P11473); assay: ATG_VDR_TRANS: Attagene TRANS-FACTORIAL HepG2 Assay for human Vitamin D Receptor (VDR) (AID 2283022)
How it was run: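 RT-PCR/capillary electrophoresis read-out of reporter mRNA induction in transiently transfected HepG2; 24 h dosing; chimeric NR-Gal4 (TRANS format); gain-of-signal fit against DMSO baseline.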

[5] = ATG_M_06_TRANS: Attagene TRANS-FACTORIAL HepG2 Assay for M06 Transcription Factor (Internal Marker) (AID 2282983); details: HepG2 Attagene TRANS M06 internal marker reporter;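 on AC50: potency for rise in reporter mRNA above DMSO baseline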;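 on outcome: reporter transcript level by RT-PCR then capillary electrophoresis fluorescence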
How it was run: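 Read-out: fluorescent reporter cDNA fragments resolved by capillary electrophoresis after RT-PCR and HpaI cut. Source cells were HepG2 carrying transfected multi-reporter GAL4 constructs, dosed 24 h. Increase over DMSO control analysed.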

[6] = TOX21_p53_BLA_p4_viability: Viability Assessment in the Tox21 HCT-116 p53 Agonism Beta-lactamase Assay, Phase 4 (AID 2283597);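 further: hits lower the luminescence signal meaning cytotoxicity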
How it was run: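 ATP content by CellTiter-Glo luminescence, 30 min RT, read after the beta-lactamase ratio step. Cells: HCT116, 4000/well, compound added after 5 h, exposure 16 h at 37C. Signal loss = reduced viability.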

[7] = ACEA_ER_AUC_viability: ACEA Biosciences xCELLigence Real-Time Cell Analysis on Estrogen Receptor Agonism for Viability (AID 2283782);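 further: hit means loss of impedance signal meaning reduced cell growth or viability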
How it was run: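 Continuous-exposure impedance cell analysis uses T-47D cells in charcoal-stripped serum, eight 1:4 dilutions topping at 100 uM final, biological duplicate. Area under the growth curve at 80 h is fitted against DMSO baseline.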

[8] = CCTE_Harrill_HTTr_CellCount_MCF7: CCTE's Cell Proliferation Assessment for the High-Throughput Transcriptomics (HTTr) Platform, Harrill Lab (AID 2284012);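 further: count of Hoechst-stained nuclei per well by high-content imaging in MCF-7 cells; cells exposed to compound for six hours; intended direction is loss of nuclei count meaning fewer cells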
How it was run: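 Readout: Hoechst nuclear count by high-content imaging. MCF-7, 8-point dilution series, 6 h exposure. Bidirectional fit vs DMSO baseline.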

[9] = molecular target: Peroxisome proliferator-activated receptor gamma (Homo sapiens) (UniProt P37231); assay: ATG_PPARg_TRANS: Attagene TRANS-FACTORIAL HepG2 Assay for human Peroxisome Proliferator-activated Receptor-gamma (PPARg) (AID 2283007)
How it was run: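 Endpoint reflects upward reporter mRNA change versus DMSO controls. Setup: transiently transfected HepG2, GAL4-UAS reporters driven by chimeric NR-Gal4, 24 h incubation, RT-PCR with capillary electrophoresis read-out.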

[10] = molecular target: Cellular tumor antigen p53 (Homo sapiens) (UniProt P04637); assay: TOX21_p53_BLA_p2_ratio: Tox21 HCT-116 p53 Agonism Beta-lactamase Assay, Ratio, Phase 2 (AID 2283592)
How it was run: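 Readout: blue/green (460/530 nm) FRET emission ratio after 2 h CCF4-AM loading at room temperature, excitation 405 nm. HCT116 p53 bla cells, 16 h compound exposure at 37C, 5% CO2; agonist direction fitted against DMSO baseline.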

[11] = molecular target: Cellular tumor antigen p53 (Homo sapiens) (UniProt P04637); assay: TOX21_p53_BLA_p3_ratio: Tox21 HCT-116 p53 Agonism Beta-lactamase Assay, Ratio, Phase 3 (AID 2283596)
How it was run: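 Cells were seeded at 4000/well, rested 5 h at 37C, then dosed with DMSO compound solutions (217-fold dilution) for 16 h. CCF4-AM substrate was loaded for 2 h at room temperature, and the 460/530 nm emission ratio was fitted for gain of signal versus DMSO.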

[12] = TOX21_p53_BLA_p5_viability: Viability Assessment in the Tox21 HCT-116 p53 Agonism Beta-lactamase Assay, Phase 5 (AID 2283600)
How it was run: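 ATP luminescence (CellTiter-Glo, 30 min, RT) served as the viability read-out, with loss of signal indicating cytotoxicity. Compounds in DMSO were pinned at a 217-fold dilution onto 4000 cells/well and incubated 16 h, 37C.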

[13] = molecular target: Cellular tumor antigen p53 (Homo sapiens) (UniProt P04637); assay: TOX21_p53_BLA_p4_ratio: Tox21 HCT-116 p53 Agonism Beta-lactamase Assay, Ratio, Phase 4 (AID 2283601)
How it was run: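 HCT116 cells carrying an inducible beta-lactamase reporter were plated at 4000 cells/well, rested 5 h, then exposed to compounds in DMSO (217-fold dilution) for 16 h at 37C. CCF4-AM substrate was loaded 2 h at room temperature; 460/530 nm emission ratio scored gain-of-signal versus DMSO.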

[14] = molecular target: Cellular tumor antigen p53 (Homo sapiens) (UniProt P04637); assay: TOX21_p53_BLA_p5_ratio: Tox21 HCT-116 p53 Agonism Beta-lactamase Assay, Ratio, Phase 5 (AID 2283599)
How it was run: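 HCT-116 cells carrying a p53-inducible beta-lactamase reporter were seeded at 4000 cells/well and dosed after 5 h with compound in DMSO (217-fold dilution). After 16 h at 37C, CCF4-AM substrate was added for 2 h, and the 460/530 nm emission ratio was scored as gain-of-signal versus DMSO.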

[15] = molecular target: Retinoic acid receptor RXR-alpha (Homo sapiens) (UniProt P19793); assay: OT_NURR1_NURR1RXRa_0480: Odyssey Thera (OT) 8-hour HEK293T Protein Complementation Assay for Nurr1/retinoid X receptor (RXR) (AID 2283385)
How it was run: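 Read-out: fluorescence from protein-fragment complementation between Nurr1 and RXRα in human HEK293T cells, 8 h after dosing. DMSO served as negative control; increased signal counted as activity.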

[16] = molecular target: Retinoic acid receptor RXR-alpha (Homo sapiens) (UniProt P19793); assay: OT_NURR1_NURR1RXRa_1440: Odyssey Thera (OT) 24-hour HEK293T Protein Complementation Assay for Nurr1/retinoid X receptor (RXR) (AID 2283386)
How it was run: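 Fluorescence PCA read-out; HEK293T; 24 h post-dose; bait/prey fused to reporter fragments; gain-of-signal fit vs DMSO negative control.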

[17] = ATG_XTT_Cytotoxicity: Cytotoxicity Assessment in the Attagene TRANS-FACTORIAL HepG2 Assay (AID 2283584);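 further: cells exposed to compound for 24 h before reading; active means loss of viability signal versus DMSO baseline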
How it was run: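 XTT readout of cell number in transfected HepG2 cells, 24 h post-dosing; DMSO serves as negative control and baseline, with activity taken as loss of viability signal.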

[18] = ACEA_AR_agonist_AUC_viability: ACEA Biosciences xCELLigence Real-Time Cell Analysis on Androgen Receptor Agonism for Viability (AID 2283775);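 further: viability read 80 hours after compound addition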
How it was run: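 Viability endpoint from xCELLigence impedance in 22Rv1 prostate cells at 80 h. Eight-point series, 100 uM maximum final.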

With `CCCCCc1ccc(O)cc1` the AC50 [1] was inconclusive: 33.4 µM, the outcome [2] was “inactive” and the AC50 [3] was active: 20.7 µM. For the same compound, the AC50 [4] was inconclusive: 33.4 µM.
In the case of `CC/C=C\CCOC(=O)c1ccccc1O`, the AC50 [1] is reported as inconclusive: 181 µM, the AC50 [5] is reported as inconclusive: 100 µM and the AC50 [6] is reported as inconclusive: 85 µM. The AC50 [7] was active: 72.7 µM and the AC50 [8] was inconclusive: 50 µM.
With `C[C@H]1C[C@@H]2[C@H]([C@@H](O)C[C@@]3(C)[C@H]2CC[C@]3(O)C(=O)CO)[C@@]2(C)C=CC(=O)C=C12` the AC50 [9] was inconclusive: 37.4 µM, the AC50 [10] was inconclusive: 46.1 µM and inconclusive: 10.3 µM and the AC50 [11] was inconclusive: 67.4 µM. For the same compound, the outcome [11] was “inactive”, the AC50 [12] was inconclusive: 46.1 µM and inconclusive: 10.3 µM and the AC50 [13] was inconclusive: 46.1 µM.
For `Cc1cc(O)c(C(C)(C)C)cc1C(C)(C)C`, the AC50 [10] was active: 70.8 µM, the AC50 [11] was active: 87.3 µM and the AC50 [6] was active: 30.9 µM. For the same compound, the AC50 [14] was active: 57.2 µM, the AC50 [12] was active: 34.3 µM and the AC50 [13] was active: 44.8 µM.
In the case of `COC(=O)[C@H]1[C@H]2C[C@@H]3c4[nH]c5cc(OC)ccc5c4CCN3C[C@H]2C[C@@H](OC(=O)c2cc(OC)c(OC)c(OC)c2)[C@@H]1OC`, the outcome [1] is reported as “inactive”, the outcome [2] is reported as “inactive” and the AC50 [15] is reported as active: 16.6 µM and active: 22.4 µM. The AC50 [16] was active: 16.5 µM and active: 25.1 µM, the AC50 [11] was inconclusive: 38.9 µM and inconclusive: 23 µM and the outcome [6] was “inactive”. The AC50 [14] was inconclusive: 23 µM, the outcome [12] was “inactive” and the outcome [13] was “inactive”.
In the case of `Cc1c(-c2cccnc2)c2ccccc2n1CCCCC(=O)O`, the AC50 [5] is reported as inconclusive: 1.23 µM, the AC50 [4] is reported as inconclusive: 100 µM and the AC50 [15] is reported as inconclusive: 50 µM. The AC50 [16] was inconclusive: 50 µM, the AC50 [6] was inconclusive: 46.1 µM and the AC50 [12] was inconclusive: 9.82 µM.
In the case of `COc1cc(OC)nc(NC(=O)NS(=O)(=O)Nc2ccccc2C(=O)N(C)C)n1`, the outcome [5] is reported as “inactive”, the AC50 [2] is reported as inconclusive: 25.9 µM and the AC50 [3] is reported as inconclusive: 23.4 µM. The AC50 [4] was inconclusive: 100 µM, the AC50 [17] was inconclusive: 100 µM and the AC50 [8] was inconclusive: 50 µM.
For `C=CC(=O)OCC(F)(F)C(F)(F)C(F)(F)C(F)(F)C(F)(F)C(F)(F)C(F)(F)C(F)F`, the outcome [7] was “inactive”.
For `O=[Si]=O`, the AC50 [1] was inconclusive: 3.62 µM, the AC50 [2] was inconclusive: 100 µM and the AC50 [4] was inconclusive: 0.0151 µM. The AC50 [15] was inconclusive: 50 µM, the AC50 [16] was inconclusive: 11.2 µM and the AC50 [10] was inconclusive: 86.6 µM. For the same compound, the AC50 [11] was inconclusive: 83.9 µM, the outcome [6] was “inactive” and the AC50 [14] was inconclusive: 46.1 µM. For the same compound, the AC50 [12] was inconclusive: 46.1 µM, the AC50 [18] was inconclusive: 50 µM and the AC50 [8] was inconclusive: 50 µM.
